Results reported in patent EP4567103A1, “USE OF PYRUVATE FOR POTENTIATING NK CELLS” (LVMH Recherche, priority 2023, dated 2025).
At least one compound was matched to its structure with a doubt left.

Columns and labels:
Type in all cases: cell-based, human
NK cells [1] = test: Marker expression (CD107a, MIP1-β, IFN-γ) of NK cells co-cultured with K562 cells, flow cytometry; settings: Fig. 3
NK cells [2] = test: Cytotoxicity of NK cells against K562 NanoLuc-expressing target cells (bioluminescence lysis assay); settings: Fig. 2
Procedure: (§1) Peripheral blood samples from healthy subjects were obtained from the French blood bank (Etablissement Français du sang, Lyon, France).
(§2) Human PBMCs were separated from peripheral blood by Ficoll® gradient centrifugation (Eurobio Laboratoires & AbCys) at room temperature. The PBMCs were kept at 4°C in complete medium overnight.
NK cells (CD56^Dim CD3) were isolated using an NK Cell Isolation Kit (Miltenyi Biotec) following the manufacturer's instructions, and then sorted (BD FACS ARIA II, purity > 99%, the following mAbs from eBioscience, BD Biosciences, Biolegend or Cell Signalling Technology were used: anti-CD56 (NCAM16.2), and anti-CD3 (UCHT1)). […]
NK cells were prepared as in Example 1, and were cultured in the absence or in the presence of pyruvate at varying concentrations (0.01 to 10 mM) for 3 hours and then co-cultured for 4 hours with K562 NanoLuc®-expressing target cells. The supernatant was collected and bioluminescence was measured using a Tristar Instrument luminometer (Berthold) after addition of Furimazin (the substrate of NanoLuc). The percentage of cell lysis were calculated as explained in Hayek, S. et al., SLAS Discov. […]

NK cells [3] = test: Intracellular ATP concentration in NK cells, luciferase-based assay (CellTiter-Glo 2.0); settings: pyruvate 0.01 to 10mM, 4 hours; Fig. 1; especially higher within 0.35 to 10 mM
Procedure: as §1, §2
NK cells (CD56^Dim CD3) were isolated using an NK Cell Isolation Kit (Miltenyi Biotec) following the manufacturer's instructions, and then sorted (BD FACS ARIA II, purity > 99%, the following mAbs from eBioscience, BD Biosciences, Biolegend or Cell Signalling Technology were used: anti-CD56 (NCAM16.2), and anti-CD3 (UCHT1)). Freshly sorted NK cells were left to recover from the sorting overnight at 37°C with a non-activating dose of IL-15 (1 ng/ml, Peprotech) in RPMI 1640 medium additionally containing 10% FBS, 2mM HEPES, 2mM glutamine, 1mM pyruvate (sodium pyruvate) and 1% penicillin/streptomycin (HCL Technologies). […]
The intracellular ATP concentration at each concentration of pyruvate was measured using a luciferase-based assay following the manufacturer's instructions (CellTiter-Glo® 2.0 Cell Viability Assay and NAD/NADH-Glo Assay, Promega Corporation, Madison, WI). Luminescence was measured using a Tristar luminometer (Berthold).

[4] = compared with the physiological concentration of pyruvate in blood (40 to 150 µM)

## CC(=O)C(=O)O [pyruvate]
NK cells [1]; as the pyruvate concentration increased (0.01 to 10mM), 3 hours, then 4 hours with K562 cells, Effector-Target ratio 10:1
  percentage of positive NK cells, all the markers (CD107a, MIP1-β, IFN-γ): overall increase
NK cells [1]; [4]
  percentage of NK cells positive for each marker within the range of 0.35 to 10 mM of pyruvate concentration: higher
NK cells [2]; as the pyruvate concentration increased (0.01 to 10 mM)
  K562 lysis rate (%): overall increase
NK cells [2]; [4]
  K562 lysis rate within the range of 0.35 to 10 mM of pyruvate: higher
NK cells [3]
  intracellular ATP concentration: increased dose-dependently
